Measurements reported in the supplement of paper PMC10849652.
This is one part of the list.

The chains behind the UniProt entries cited, without tags or fusion partners. Where a name states a change or a piece, a line headed by the entry shows the natural chain unless it says otherwise.
UniProt H3BUF6: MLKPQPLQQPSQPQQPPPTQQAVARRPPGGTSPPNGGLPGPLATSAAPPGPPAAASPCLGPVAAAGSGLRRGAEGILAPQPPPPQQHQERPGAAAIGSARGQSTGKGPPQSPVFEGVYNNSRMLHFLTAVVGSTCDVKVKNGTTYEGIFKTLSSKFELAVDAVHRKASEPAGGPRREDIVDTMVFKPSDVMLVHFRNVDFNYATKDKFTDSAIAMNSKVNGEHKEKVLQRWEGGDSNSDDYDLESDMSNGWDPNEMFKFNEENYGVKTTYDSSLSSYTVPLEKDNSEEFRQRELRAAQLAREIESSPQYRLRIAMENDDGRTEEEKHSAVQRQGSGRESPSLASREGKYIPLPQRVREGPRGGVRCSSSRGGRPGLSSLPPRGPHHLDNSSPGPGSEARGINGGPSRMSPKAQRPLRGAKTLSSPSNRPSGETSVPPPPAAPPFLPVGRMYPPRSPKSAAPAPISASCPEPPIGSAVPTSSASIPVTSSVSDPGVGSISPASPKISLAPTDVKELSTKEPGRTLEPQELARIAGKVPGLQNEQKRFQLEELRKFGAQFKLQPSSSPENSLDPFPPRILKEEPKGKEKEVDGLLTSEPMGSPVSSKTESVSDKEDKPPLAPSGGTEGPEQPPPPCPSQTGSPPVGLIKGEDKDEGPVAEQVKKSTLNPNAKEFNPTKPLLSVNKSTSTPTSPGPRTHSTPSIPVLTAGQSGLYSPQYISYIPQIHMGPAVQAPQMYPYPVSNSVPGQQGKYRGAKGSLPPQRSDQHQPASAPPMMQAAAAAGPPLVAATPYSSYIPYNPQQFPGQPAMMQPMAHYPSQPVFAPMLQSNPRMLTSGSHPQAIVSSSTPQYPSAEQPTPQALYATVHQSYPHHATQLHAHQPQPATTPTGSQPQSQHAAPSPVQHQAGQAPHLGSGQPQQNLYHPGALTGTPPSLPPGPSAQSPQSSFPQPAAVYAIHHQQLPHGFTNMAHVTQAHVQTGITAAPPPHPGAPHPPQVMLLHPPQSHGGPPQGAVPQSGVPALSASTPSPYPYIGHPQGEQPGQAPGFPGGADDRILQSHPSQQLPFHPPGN
UniProt Q6UW56: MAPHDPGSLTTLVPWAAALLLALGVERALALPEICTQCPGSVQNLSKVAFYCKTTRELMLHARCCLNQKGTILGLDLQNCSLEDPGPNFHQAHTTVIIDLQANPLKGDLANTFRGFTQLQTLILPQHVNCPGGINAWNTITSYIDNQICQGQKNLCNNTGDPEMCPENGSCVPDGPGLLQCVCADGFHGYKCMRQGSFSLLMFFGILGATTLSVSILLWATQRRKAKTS
UniProt P25705: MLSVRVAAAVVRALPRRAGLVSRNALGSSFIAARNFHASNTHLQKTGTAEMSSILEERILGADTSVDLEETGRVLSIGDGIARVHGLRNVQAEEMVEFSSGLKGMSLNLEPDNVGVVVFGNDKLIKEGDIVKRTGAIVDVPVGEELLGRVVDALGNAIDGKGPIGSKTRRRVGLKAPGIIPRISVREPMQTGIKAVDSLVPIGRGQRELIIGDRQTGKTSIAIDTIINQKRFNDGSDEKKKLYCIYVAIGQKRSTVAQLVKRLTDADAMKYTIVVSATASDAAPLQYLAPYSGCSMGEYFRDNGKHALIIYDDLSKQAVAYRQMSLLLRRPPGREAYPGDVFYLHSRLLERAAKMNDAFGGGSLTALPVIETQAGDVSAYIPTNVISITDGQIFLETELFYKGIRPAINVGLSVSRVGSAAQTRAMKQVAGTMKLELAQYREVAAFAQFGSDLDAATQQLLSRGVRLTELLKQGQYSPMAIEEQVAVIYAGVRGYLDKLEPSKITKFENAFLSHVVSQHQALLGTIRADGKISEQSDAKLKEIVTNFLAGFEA
UniProt Q9Y2G3: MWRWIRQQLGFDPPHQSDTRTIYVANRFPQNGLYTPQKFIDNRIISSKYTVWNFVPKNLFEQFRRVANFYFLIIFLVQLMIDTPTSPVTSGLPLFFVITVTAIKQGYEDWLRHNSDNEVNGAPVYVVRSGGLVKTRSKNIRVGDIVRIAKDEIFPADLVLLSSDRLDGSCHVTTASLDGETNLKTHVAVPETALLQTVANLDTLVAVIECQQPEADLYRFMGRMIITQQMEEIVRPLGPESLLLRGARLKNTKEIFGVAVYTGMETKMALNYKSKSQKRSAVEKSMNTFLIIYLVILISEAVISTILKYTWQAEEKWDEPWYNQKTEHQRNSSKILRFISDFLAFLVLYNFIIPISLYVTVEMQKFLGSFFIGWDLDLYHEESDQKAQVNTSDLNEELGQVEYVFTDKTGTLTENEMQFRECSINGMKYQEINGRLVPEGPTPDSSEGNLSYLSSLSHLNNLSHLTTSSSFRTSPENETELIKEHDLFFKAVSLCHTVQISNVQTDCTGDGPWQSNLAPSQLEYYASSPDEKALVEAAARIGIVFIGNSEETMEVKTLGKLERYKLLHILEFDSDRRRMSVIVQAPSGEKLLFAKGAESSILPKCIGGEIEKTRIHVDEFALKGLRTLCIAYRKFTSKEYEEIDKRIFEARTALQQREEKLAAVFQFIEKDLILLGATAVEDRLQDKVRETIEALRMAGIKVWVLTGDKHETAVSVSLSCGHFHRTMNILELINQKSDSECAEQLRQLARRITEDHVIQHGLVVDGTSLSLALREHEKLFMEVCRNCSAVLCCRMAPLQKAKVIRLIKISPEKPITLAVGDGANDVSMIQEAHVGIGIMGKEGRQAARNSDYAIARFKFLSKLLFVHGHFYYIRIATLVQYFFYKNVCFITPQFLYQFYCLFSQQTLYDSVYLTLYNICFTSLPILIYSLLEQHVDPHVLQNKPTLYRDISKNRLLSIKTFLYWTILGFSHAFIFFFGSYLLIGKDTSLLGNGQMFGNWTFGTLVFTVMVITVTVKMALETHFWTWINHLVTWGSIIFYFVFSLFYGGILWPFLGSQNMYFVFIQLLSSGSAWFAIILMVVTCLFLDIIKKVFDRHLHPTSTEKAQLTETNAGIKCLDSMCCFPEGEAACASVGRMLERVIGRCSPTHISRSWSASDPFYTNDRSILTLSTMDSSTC
UniProt P25311: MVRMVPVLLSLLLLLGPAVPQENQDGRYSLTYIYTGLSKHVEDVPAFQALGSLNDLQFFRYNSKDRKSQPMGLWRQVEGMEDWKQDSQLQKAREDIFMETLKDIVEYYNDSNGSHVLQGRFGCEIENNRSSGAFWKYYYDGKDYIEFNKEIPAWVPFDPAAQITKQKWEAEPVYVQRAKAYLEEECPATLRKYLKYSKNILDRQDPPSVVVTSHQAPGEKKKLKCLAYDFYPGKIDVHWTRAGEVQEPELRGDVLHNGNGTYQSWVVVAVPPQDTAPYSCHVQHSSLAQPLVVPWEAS
UniProt O75964: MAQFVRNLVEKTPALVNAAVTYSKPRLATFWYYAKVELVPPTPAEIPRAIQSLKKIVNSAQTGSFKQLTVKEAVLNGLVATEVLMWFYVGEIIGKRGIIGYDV
UniProt Q8WWM7: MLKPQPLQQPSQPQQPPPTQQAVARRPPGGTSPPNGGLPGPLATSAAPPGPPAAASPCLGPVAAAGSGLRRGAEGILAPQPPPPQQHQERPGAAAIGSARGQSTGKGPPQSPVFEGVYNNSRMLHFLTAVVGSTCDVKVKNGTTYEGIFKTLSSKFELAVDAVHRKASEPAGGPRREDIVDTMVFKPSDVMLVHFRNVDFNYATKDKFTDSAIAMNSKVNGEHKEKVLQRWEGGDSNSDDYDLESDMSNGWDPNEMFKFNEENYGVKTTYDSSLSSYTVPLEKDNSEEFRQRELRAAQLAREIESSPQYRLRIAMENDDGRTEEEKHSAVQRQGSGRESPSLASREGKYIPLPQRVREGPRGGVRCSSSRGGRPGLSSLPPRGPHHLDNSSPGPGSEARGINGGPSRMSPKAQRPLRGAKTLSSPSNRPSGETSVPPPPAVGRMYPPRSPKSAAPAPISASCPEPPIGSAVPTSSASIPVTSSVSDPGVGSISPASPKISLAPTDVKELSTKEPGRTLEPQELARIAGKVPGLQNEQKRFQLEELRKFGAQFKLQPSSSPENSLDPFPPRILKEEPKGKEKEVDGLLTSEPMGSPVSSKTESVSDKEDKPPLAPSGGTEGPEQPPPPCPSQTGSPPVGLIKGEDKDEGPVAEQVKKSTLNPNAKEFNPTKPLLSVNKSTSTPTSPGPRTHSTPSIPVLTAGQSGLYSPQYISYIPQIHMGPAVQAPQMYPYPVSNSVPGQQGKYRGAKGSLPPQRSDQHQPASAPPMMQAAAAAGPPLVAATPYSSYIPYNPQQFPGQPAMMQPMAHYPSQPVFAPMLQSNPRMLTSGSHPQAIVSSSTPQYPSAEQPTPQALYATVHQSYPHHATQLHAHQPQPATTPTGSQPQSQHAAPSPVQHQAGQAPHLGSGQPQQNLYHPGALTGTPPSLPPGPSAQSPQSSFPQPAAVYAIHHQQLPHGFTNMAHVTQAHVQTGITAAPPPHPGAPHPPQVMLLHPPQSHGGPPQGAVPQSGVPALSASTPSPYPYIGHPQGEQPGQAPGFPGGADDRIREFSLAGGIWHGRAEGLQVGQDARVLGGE
UniProt O00244: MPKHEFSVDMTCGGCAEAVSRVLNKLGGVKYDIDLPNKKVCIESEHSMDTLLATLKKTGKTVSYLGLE
UniProt P56385: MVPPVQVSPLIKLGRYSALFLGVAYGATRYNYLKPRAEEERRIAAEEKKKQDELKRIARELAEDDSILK
UniProt O14965: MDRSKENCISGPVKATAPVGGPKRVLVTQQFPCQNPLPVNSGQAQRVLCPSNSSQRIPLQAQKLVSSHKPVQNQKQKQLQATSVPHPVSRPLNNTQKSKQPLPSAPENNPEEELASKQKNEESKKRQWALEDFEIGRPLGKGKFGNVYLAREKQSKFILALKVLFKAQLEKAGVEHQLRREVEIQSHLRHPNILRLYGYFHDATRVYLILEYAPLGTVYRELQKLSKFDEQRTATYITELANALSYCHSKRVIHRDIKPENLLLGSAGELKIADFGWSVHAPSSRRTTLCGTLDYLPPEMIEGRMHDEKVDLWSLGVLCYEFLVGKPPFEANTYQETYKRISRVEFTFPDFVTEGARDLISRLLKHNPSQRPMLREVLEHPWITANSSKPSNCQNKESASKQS
UniProt P48047: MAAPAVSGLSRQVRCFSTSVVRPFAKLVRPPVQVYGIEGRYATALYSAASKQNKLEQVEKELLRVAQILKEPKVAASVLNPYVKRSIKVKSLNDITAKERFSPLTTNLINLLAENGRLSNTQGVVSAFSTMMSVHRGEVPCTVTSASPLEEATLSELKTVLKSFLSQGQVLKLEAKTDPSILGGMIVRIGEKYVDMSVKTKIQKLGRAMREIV
UniProt Q06055: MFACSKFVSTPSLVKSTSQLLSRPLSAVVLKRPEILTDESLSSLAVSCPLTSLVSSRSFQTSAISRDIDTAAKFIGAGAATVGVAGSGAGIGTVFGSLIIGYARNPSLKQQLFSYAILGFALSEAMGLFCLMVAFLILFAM
UniProt P38606, whole entry, looked up: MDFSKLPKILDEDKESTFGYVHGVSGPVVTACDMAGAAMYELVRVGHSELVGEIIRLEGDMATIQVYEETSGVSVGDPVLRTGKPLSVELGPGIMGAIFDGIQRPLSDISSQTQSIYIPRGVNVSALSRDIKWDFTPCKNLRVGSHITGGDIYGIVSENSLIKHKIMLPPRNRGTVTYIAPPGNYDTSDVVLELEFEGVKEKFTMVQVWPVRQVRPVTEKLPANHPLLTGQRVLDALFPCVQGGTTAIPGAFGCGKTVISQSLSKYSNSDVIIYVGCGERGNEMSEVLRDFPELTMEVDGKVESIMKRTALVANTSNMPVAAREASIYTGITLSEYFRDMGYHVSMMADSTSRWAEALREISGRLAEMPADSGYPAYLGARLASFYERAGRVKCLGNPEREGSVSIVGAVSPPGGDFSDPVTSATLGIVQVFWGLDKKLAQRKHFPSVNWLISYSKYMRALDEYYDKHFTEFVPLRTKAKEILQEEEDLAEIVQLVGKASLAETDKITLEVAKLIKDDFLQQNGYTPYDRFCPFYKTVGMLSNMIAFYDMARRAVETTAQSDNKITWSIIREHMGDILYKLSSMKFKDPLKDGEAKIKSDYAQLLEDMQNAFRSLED
UniProt Q00973: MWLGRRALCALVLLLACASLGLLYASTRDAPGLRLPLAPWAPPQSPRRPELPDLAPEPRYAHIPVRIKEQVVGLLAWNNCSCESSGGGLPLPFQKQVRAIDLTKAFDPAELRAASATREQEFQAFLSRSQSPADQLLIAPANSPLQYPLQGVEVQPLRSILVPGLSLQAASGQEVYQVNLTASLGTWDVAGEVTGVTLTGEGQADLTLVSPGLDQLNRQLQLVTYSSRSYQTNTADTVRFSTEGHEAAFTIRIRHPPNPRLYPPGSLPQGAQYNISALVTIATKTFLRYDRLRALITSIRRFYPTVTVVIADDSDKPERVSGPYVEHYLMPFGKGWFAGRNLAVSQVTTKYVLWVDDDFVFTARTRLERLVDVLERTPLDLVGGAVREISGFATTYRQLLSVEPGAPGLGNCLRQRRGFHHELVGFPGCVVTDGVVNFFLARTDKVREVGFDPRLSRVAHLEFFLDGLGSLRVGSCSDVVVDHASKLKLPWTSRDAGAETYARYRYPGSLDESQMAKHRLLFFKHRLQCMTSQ

Assays:
Test in all cases: log2 fold change, soluble protein after heating vs DMSO (PISA); higher = thermal stabilisation; K562 lysate, 10 uM; active = over 0.2 and 3.5 SD of the protein, either way, in both replicates (recomputed)
[1] = compound: NCC(=O)Nc1ccc(-n2nc(C(F)(F)F)cc2-c2ccc3c(ccc4ccccc43)c2)cc1
Outline: (§1)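 Log-two fold change in thermal stability relative to solvent controls is reported from duplicates. For each sample, crude K562 extract from dounce-homogenised pellets in PBS pH 7.4 with 1 mM MgCl2, at 1 mg/mL protein, was treated with 10 μM compound for 30 min. Aliquots heated for 3 min across 48°C-58°C were pooled, brought to 0.5% NP-40 at 4°C and cleared at 21,000xg for 90 min. The supernatant was quantified by TMTpro 16plex LC-MS/MS with channel sums equalised.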

vorinostat = compound: O=C(CCCCCCC(=O)Nc1ccccc1)NO [vorinostat]
Outline: as §1

silmitasertib = compound: O=C(O)c1ccc2c(c1)nc(Nc1cccc(Cl)c1)c1ccncc12 [silmitasertib]
Outline: as §1

[2] = compound: O=C1NC(=O)C(c2cnc3ccccn23)=C1c1cn2c3c(cc(F)cc13)CN(C(=O)N1CCCCC1)CC2
Outline: as §1

entospletinib = compound: c1cn2cc(-c3ccc4cn[nH]c4c3)nc(Nc3ccc(N4CCOCC4)cc3)c2n1 [entospletinib]
Outline: as §1

Target | log2 fold change [1] | log2 fold change (vorinostat) | log2 fold change (silmitasertib) | log2 fold change [2] | log2 fold change (entospletinib)
ASPM (UniProt Q8IZT6) | inactive: 0.032 | inactive: -0.025 | inactive: 0.093 | inactive: 0.023 | inactive: 0.036
ATP5PF isoform 2 (UniProt P18859) | inactive: -0.002 | inactive: 0.206 | inactive: -0.116 | inactive: 0.053 | inactive: -0.003
ATXN2L (UniProt H3BUF6) | inactive: 0.05 | inactive: -0.014 | inactive: -0.059 | inactive: -0.209 | inactive: -0.295
ATIC (UniProt P31939) | inactive: 0 | inactive: -0.033 | inactive: 0.056 | inactive: 0.01 | inactive: -0.002
ATRAID isoform 3 (UniProt Q6UW56) | inactive: 0.01 | inactive: 0.052 | inactive: -0.067 | inactive: -0.112 | inactive: 0.043
ASRGL1 (UniProt Q7L266) | inactive: 0.037 | inactive: 0.088 | inactive: 0.011 | inactive: 0.007 | inactive: -0.042
ATP5F1A (UniProt P25705) | inactive: -0.007 | inactive: 0.118 | inactive: 0.008 | inactive: -0.024 | inactive: -0.012
ATPAF2 (UniProt Q8N5M1) | inactive: -0.016 | inactive: 0.044 | inactive: 0.009 | inactive: -0.038 | inactive: -0.058
ATP5F1C (UniProt P36542) | inactive: -0.004 | inactive: 0.099 | inactive: 0.023 | inactive: -0.029 | inactive: 0.004
ASCC3 (UniProt Q8N3C0) | inactive: 0.094 | inactive: -0.127 | inactive: 0.031 | inactive: 0.016 | inactive: -0.006
ATR (UniProt Q13535) | inactive: 0.044 | inactive: -0.131 | active: 0.509 | inactive: -0.01 | inactive: 0.046
ATP11B (UniProt Q9Y2G3) | inactive: 0.027 | inactive: 0.092 | inactive: -0.006 | inactive: -0.01 | inactive: 0.008
ATP5PB (UniProt P24539) | inactive: 0.01 | inactive: 0.125 | inactive: -0.014 | inactive: -0.021 | inactive: -0.011
ASF1A (UniProt Q9Y294) | inactive: -0.006 | inactive: 0.04 | inactive: 0.022 | inactive: -0.011 | inactive: 0.002
ATF7 isoform 6 (UniProt P17544) | inactive: 0.072 | inactive: 0.144 | inactive: 0.02 | inactive: -0.064 | inactive: -0.124
AZGP1 (UniProt P25311) | inactive: 0.073 | inactive: 0.155 | inactive: -0.449 | inactive: 0.328 | inactive: -0.066
ATP11A (UniProt P98196) | inactive: 0.168 | active: -0.265 | inactive: 0.106 | inactive: 0.009 | inactive: -0.054
ATP5MG (UniProt O75964) | inactive: -0.007 | inactive: 0.107 | inactive: 0.016 | inactive: 0.008 | inactive: 0.029
ATRX (UniProt P46100) | inactive: 0.066 | inactive: -0.239 | inactive: -0.05 | inactive: -0.08 | inactive: 0.01
AVEN (UniProt Q9NQS1) | inactive: -0.146 | active: -0.738 | inactive: -0.009 | inactive: 0.092 | inactive: -0.161
ATM (UniProt Q13315) | inactive: 0.058 | inactive: -0.093 | inactive: 0.118 | inactive: -0.033 | inactive: 0.036
ATP6V1E1 (UniProt P36543) | inactive: -0.048 | inactive: 0.109 | inactive: -0.025 | inactive: 0.007 | inactive: -0.003
ATXN2L (UniProt Q8WWM7) | inactive: 0.008 | inactive: -0.083 | inactive: -0.073 | inactive: -0.109 | inactive: 0.004
ATN1 (UniProt P54259) | inactive: 0.042 | inactive: 0.045 | inactive: -0.034 | inactive: 0.022 | inactive: -0.014
ATG12 (UniProt O94817) | inactive: -0.021 | inactive: -0.13 | inactive: 0.009 | inactive: 0.02 | inactive: -0.02
ATP6V0A2 (UniProt Q9Y487) | inactive: -0.033 | inactive: 0.127 | inactive: -0.016 | inactive: -0.021 | inactive: 0.012
ATOX1 (UniProt O00244) | inactive: -0.051 | inactive: 0.095 | inactive: 0.009 | inactive: 0.089 | inactive: -0.078

Complete entries, quoted from the list:
ATXN2L (UniProt Q8WWM7) reads log2 fold change [1]: inactive: 0.008; log2 fold change (vorinostat): inactive: -0.083; log2 fold change (silmitasertib): inactive: -0.073; log2 fold change [2]: inactive: -0.109; log2 fold change (entospletinib): inactive: 0.004
ATF7 isoform 6 (UniProt P17544) reads log2 fold change [1]: inactive: 0.072; log2 fold change (vorinostat): inactive: 0.144; log2 fold change (silmitasertib): inactive: 0.02; log2 fold change [2]: inactive: -0.064; log2 fold change (entospletinib): inactive: -0.124
ASRGL1 (UniProt Q7L266) reads log2 fold change [1]: inactive: 0.037; log2 fold change (vorinostat): inactive: 0.088; log2 fold change (silmitasertib): inactive: 0.011; log2 fold change [2]: inactive: 0.007; log2 fold change (entospletinib): inactive: -0.042
ASPM (UniProt Q8IZT6) reads log2 fold change [1]: inactive: 0.032; log2 fold change (vorinostat): inactive: -0.025; log2 fold change (silmitasertib): inactive: 0.093; log2 fold change [2]: inactive: 0.023; log2 fold change (entospletinib): inactive: 0.036

Next records:

Target | log2 fold change [1] | log2 fold change (vorinostat) | log2 fold change (silmitasertib) | log2 fold change [2] | log2 fold change (entospletinib)
ASPSCR1 (UniProt Q9BZE9) | inactive: -0.021 | inactive: -0.073 | inactive: -0.008 | inactive: 0.012 | inactive: -0.014
ATP2B1 isoform 1 (UniProt P20020) | inactive: 0.01 | inactive: 0.008 | inactive: -0.004 | inactive: -0.025 | inactive: -0.028
AUH (UniProt Q13825) | inactive: 0.1 | inactive: -0.068 | inactive: 0.017 | inactive: -0.063 | inactive: -0.11
ASF1B (UniProt Q9NVP2) | inactive: -0.046 | inactive: -0.03 | inactive: 0.047 | inactive: -0.011 | inactive: 0.036
ATF7IP isoform 4 (UniProt Q6VMQ6) | inactive: -0.009 | inactive: -0.014 | inactive: -0.006 | inactive: -0.019 | inactive: -0.033
ATXN2 (UniProt F8WB05) | inactive: 0.013 | inactive: 0.011 | inactive: 0.271 | inactive: 0.115 | inactive: -0.016
ATF3 (UniProt P18847) | inactive: 0.001 | inactive: -0.041 | inactive: 0.128 | inactive: -0.025 | inactive: -0.208
ASH2L (UniProt Q9UBL3) | inactive: -0.025 | inactive: -0.084 | inactive: -0.005 | inactive: -0.025 | inactive: 0.002
ATP7A isoform 3 (UniProt Q04656) | inactive: 0.01 | inactive: -0.205 | inactive: 0.039 | inactive: 0.026 | inactive: 0.017
ATF2 (UniProt P15336) | inactive: -0.016 | inactive: -0.097 | inactive: -0.057 | inactive: -0.008 | inactive: -0.091
ASNA1 (UniProt O43681) | inactive: -0.043 | inactive: 0.034 | inactive: 0.021 | inactive: -0.014 | inactive: -0.001
ATP1A1 (UniProt P05023) | inactive: -0.003 | inactive: 0.099 | inactive: -0.032 | inactive: -0.002 | inactive: 0.01
ATG7 (UniProt O95352) | inactive: 0.008 | active: -0.47 | inactive: 0.005 | inactive: -0.005 | inactive: 0.001
AZI2 (UniProt Q9H6S1) | inactive: 0.06 | inactive: -0.028 | inactive: 0.034 | inactive: 0.048 | inactive: 0.079
ATAD3B (UniProt Q5T9A4) | inactive: -0.128 | inactive: 0.132 | inactive: 0.015 | inactive: -0.057 | inactive: 0.012
ATP5ME (UniProt P56385) | inactive: -0.01 | inactive: 0.128 | inactive: 0.035 | inactive: -0.031 | inactive: -0.063
ATXN2L isoform 3 (UniProt Q8WWM7) | inactive: 0.013 | inactive: -0.152 | inactive: -0.027 | inactive: -0.021 | inactive: -0.003
AVL9 (UniProt Q8NBF6) | inactive: 0.022 | inactive: 0.082 | inactive: -0.014 | inactive: -0.028 | inactive: -0.001
AURKA (UniProt O14965) | inactive: -0.008 | inactive: -0.236 | inactive: 0.135 | inactive: 0.1 | inactive: 0.167
ATP5PO (UniProt P48047) | inactive: 0.006 | inactive: 0.151 | inactive: 0.003 | inactive: 0.001 | inactive: 0.018
ATP5MC2 isoform 2 (UniProt Q06055) | inactive: 0.015 | inactive: 0.165 | inactive: -0.011 | inactive: 0.052 | inactive: 0.009
ATP6V1A (UniProt P38606) | inactive: -0.001 | inactive: 0.059 | inactive: -0.002 | inactive: -0.052 | inactive: 0.009
B4GALNT1 (UniProt Q00973) | inactive: 0.007 | inactive: -0.055 | inactive: -0.003 | inactive: 0.027 | inactive: -0.022
ASL (UniProt P04424) | inactive: 0.017 | inactive: 0.065 | inactive: -0.006 | inactive: -0.012 | inactive: 0.001
ATG10 (UniProt Q9H0Y0) | inactive: -0.032 | active: -0.242 | inactive: 0.049 | inactive: -0.023 | inactive: 0.034
ATG14 (UniProt Q6ZNE5) | inactive: 0.02 | inactive: 0.01 | inactive: 0.121 |  | inactive: -0.129
